Publication doi:10.1101/2024.12.04.626922
Results are given in words; binding and its absence hold for the method and conditions named. In cells and extracts the contact can be indirect. Binding calls can cover weak binding; strength is not graded here.

Molecular target: T1, Ras-Associated Protein 2C (RAP2C) (UniProt Q9Y3L5)
T1 sequence: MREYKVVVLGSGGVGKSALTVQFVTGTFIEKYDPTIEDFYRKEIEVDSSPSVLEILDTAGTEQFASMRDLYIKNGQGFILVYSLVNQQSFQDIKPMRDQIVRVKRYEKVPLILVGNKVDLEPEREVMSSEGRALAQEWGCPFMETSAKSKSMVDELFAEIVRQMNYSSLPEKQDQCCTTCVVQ
Experiment: co-IP

With “mitogen-activated protein kinase kinase kinase kinase-4 (MAP4K4)” the binding was “binds”.
